From publication PMC12714136, “14-3-3θ phosphorylation at S232 reduces its interactome and regulates axonal trafficking” (Disease Models & Mechanisms, 2025)

Chains of the proteins cited; added tags and fusions are not shown.
UniProt O88737: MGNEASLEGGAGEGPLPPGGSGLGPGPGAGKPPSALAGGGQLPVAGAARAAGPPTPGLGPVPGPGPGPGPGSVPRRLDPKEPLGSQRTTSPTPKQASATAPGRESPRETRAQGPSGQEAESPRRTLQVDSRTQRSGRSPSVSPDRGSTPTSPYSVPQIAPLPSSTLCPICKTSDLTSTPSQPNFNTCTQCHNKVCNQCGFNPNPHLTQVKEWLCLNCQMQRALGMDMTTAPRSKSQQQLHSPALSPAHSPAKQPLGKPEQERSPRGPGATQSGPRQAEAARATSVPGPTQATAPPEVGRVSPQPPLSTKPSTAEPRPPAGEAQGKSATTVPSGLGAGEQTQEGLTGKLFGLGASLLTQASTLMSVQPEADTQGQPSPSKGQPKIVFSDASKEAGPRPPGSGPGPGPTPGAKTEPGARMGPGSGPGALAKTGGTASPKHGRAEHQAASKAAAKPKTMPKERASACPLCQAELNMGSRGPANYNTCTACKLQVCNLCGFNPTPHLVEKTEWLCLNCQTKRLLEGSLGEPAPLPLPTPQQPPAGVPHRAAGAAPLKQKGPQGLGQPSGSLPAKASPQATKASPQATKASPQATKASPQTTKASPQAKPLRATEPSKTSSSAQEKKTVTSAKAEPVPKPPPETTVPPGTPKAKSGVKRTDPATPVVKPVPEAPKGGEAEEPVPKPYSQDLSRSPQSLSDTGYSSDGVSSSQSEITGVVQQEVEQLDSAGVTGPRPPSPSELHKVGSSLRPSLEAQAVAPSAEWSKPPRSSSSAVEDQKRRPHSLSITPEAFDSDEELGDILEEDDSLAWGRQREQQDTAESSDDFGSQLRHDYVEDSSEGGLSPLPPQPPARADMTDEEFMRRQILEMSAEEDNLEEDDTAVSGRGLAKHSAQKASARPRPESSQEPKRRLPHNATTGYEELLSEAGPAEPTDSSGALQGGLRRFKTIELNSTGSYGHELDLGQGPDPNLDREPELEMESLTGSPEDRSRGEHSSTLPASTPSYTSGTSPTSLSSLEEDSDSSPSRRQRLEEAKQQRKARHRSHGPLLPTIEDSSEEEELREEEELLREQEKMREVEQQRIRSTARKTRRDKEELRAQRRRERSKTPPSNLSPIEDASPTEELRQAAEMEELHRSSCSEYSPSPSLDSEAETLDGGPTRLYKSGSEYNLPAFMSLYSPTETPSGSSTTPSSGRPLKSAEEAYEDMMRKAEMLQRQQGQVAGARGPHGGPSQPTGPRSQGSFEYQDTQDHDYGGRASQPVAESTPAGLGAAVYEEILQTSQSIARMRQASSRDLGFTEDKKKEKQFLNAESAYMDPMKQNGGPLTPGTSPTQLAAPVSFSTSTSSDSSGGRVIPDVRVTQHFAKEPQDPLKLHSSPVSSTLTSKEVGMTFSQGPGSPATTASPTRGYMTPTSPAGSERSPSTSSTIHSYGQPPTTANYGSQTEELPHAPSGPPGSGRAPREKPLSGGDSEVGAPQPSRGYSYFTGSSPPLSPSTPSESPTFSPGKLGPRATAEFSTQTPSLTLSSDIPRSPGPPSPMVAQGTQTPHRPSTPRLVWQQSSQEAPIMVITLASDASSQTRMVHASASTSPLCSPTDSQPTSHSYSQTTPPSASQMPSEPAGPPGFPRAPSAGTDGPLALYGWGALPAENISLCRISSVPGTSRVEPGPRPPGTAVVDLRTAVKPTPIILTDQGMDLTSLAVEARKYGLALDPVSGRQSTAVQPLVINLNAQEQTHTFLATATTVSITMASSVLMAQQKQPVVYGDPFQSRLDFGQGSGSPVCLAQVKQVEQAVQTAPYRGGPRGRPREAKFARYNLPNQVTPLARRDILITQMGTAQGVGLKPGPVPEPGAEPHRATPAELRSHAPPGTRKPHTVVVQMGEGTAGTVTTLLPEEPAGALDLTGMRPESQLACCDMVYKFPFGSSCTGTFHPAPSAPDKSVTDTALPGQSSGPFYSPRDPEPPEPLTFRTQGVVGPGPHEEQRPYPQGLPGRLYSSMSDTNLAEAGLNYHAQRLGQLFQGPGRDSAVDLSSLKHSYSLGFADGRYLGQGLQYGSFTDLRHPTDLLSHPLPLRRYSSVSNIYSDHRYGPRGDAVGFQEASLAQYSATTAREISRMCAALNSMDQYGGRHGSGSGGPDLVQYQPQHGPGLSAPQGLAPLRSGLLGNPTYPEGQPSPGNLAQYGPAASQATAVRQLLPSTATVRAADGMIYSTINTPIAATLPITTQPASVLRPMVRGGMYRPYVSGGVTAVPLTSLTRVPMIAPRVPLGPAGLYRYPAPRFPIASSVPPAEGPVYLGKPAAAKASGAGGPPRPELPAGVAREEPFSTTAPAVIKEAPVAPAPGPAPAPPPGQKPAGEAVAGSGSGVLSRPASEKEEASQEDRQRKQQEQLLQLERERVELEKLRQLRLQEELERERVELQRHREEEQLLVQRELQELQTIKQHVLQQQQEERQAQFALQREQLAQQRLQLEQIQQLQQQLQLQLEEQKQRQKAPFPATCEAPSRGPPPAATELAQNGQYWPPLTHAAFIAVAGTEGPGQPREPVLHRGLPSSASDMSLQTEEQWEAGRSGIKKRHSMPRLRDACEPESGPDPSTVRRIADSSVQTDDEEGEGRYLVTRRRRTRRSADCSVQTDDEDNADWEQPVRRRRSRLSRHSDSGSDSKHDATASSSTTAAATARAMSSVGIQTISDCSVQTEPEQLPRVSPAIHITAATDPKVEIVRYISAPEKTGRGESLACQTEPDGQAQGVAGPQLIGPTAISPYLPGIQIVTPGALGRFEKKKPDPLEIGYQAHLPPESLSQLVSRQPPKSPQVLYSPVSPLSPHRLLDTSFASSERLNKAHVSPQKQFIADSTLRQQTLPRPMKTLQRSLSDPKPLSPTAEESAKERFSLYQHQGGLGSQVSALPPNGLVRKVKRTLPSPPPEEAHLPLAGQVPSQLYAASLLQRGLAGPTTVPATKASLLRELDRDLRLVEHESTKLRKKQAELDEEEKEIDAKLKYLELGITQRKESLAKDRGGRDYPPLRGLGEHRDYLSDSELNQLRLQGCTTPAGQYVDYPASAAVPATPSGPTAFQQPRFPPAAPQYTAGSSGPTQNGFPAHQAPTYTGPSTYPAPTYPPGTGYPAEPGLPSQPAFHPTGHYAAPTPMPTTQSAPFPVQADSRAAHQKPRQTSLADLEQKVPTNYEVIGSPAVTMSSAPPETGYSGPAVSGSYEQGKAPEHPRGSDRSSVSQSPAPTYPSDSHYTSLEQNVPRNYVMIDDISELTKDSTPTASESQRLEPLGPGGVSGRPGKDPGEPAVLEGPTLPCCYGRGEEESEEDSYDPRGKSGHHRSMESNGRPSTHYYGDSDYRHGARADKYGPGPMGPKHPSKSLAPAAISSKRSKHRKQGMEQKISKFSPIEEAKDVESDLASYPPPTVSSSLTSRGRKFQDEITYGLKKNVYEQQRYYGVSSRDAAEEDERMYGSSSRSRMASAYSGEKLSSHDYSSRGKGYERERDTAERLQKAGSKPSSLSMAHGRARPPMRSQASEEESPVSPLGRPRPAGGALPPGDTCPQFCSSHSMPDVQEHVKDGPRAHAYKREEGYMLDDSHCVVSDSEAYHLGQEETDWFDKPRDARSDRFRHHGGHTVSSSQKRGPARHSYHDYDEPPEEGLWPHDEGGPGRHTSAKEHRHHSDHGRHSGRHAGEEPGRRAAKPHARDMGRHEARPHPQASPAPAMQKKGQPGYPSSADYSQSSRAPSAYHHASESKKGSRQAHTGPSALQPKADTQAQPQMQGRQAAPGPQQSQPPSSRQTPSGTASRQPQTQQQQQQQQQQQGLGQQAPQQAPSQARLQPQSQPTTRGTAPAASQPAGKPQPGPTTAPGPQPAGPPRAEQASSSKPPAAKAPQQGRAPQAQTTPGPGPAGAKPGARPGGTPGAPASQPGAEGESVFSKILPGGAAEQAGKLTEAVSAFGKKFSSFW
UniProt P11798: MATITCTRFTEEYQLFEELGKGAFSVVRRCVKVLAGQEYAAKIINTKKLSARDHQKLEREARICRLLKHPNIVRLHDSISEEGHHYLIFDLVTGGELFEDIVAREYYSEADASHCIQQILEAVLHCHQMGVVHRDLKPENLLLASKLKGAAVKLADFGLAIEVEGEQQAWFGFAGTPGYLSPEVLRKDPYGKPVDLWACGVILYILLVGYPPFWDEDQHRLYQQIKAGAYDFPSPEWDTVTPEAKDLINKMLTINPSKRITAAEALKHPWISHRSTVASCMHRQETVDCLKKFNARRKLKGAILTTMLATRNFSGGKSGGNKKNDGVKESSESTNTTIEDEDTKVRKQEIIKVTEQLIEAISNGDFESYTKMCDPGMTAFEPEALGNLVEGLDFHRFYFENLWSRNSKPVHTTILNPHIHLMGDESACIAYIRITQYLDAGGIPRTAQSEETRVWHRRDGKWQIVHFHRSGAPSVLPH

What was measured:
Experiment in all cases: affinity purification with mass spectrometry; 14-3-3θ immunoprecipitated with a rabbit polyclonal antibody (rabbit IgG as control) on dynabeads from cortical lysates of 3-month-old Cre control, S232A and S232D mice; 0.5% NP-40 lysis buffer (150 mM NaCl, 10 mM Tris-HCl pH 7.4, 1 mM EGTA, 1 mM EDTA), overnight at 4°C; LC-MS, spectral counts
[1] = molecular target: T1, 14-3-3θ S232A (non-phosphorylatable mutant, knock-in mouse cortex) (mouse (endogenous in cortex)) (UniProt P68254)
T1 sequence: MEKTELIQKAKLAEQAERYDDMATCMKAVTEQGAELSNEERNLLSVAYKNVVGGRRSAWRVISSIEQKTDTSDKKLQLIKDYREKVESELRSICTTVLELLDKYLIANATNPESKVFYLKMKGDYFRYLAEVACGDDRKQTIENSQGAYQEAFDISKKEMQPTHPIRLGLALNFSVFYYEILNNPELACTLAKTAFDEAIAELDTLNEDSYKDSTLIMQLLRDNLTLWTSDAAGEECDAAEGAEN

[2] = molecular target: T2, 14-3-3θ (wild type, mouse cortex) (mouse (endogenous in cortex)) (UniProt P68254)
T2 sequence: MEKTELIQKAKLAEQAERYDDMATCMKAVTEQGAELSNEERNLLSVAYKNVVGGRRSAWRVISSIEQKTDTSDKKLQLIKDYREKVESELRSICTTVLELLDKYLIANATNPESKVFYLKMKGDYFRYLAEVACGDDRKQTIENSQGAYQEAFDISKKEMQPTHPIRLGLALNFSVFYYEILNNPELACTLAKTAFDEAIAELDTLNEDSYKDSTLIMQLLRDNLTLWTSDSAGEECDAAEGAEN

[3] = molecular target: T2, 14-3-3θ (wild type, mouse cortex) (mouse (endogenous in cortex)); remark: listed apart in the source
[4] = molecular target: T1, 14-3-3θ S232A (non-phosphorylatable mutant, knock-in mouse cortex) (mouse (endogenous in cortex)); remark: listed apart in the source

binding [1]: binds
Molecule: bassoon (mouse cortex) (from UniProt O88737 1-3942)

binding [2]: binds
Molecule: β-spectrin (mouse cortex)

binding [2]: binds
Molecule: calcium/calmodulin-dependent protein kinase type II subunit alpha (from UniProt P11798 1-478)

binding [3]: binds
B1: dynamin 1 (mouse cortex) (protein, UniProt P39053 1-867)
chain: MGNRGMEDLIPLVNRLQDAFSAIGQNADLDLPQIAVVGGQSAGKSSVLENFVGRDFLPRGSGIVTRRPLVLQLVNSTTEYAEFLHCKGKKFTDFEEVRLEIEAETDRVTGTNKGISPVPINLRVYSPHVLNLTLVDLPGMTKVPVGDQPPDIEFQIRDMLMQFVTKENCLILAVSPANSDLANSDALKIAKEVDPQGQRTIGVITKLDLMDEGTDARDVLENKLLPLRRGYIGVVNRSQKDIDGKKDITAALAAERKFFLSHPSYRHLADRMGTPYLQKVLNQQLTNHIRDTLPGLRNKLQSQLLSIEKEVDEYKNFRPDDPARKTKALLQMVQQFAVDFEKRIEGSGDQIDTYELSGGARINRIFHERFPFELVKMEFDEKELRREISYAIKNIHGIRTGLFTPDMAFETIVKKQVKKIREPCLKCVDMVISELISTVRQCTKKLQQYPRLREEMERIVTTHIREREGRTKEQVMLLIDIELAYMNTNHEDFIGFANAQQRSNQMNKKKTSGNQDEILVIRKGWLTINNIGIMKGGSKEYWFVLTAENLSWYKDDEEKEKKYMLSVDNLKLRDVEKGFMSSKHIFALFNTEQRNVYKDYRQLELACETQEEVDSWKASFLRAGVYPERVGDKEKASETEENGSDSFMHSMDPQLERQVETIRNLVDSYMAIVNKTVRDLMPKTIMHLMINNTKEFIFSELLANLYSCGDQNTLMEESAEQAQRRDEMLRMYHALKEALSIIGDINTTTVSTPMPPPVDDSWLQVQSVPAGRRSPTSSPTPQRRAPAVPPARPGSRGPAPGPPPAGSALGGAPPVPSRPGASPDPFGPPPQVPSRPNRAPPGVPSLGAWRLNSPQGKHENRAGKARL

binding [4]: binds
B2: breakpoint cluster region (mouse cortex) (protein, UniProt Q6PAJ1 1-1270)
chain: MVDSVGFAEAWRAQFPDSEPPRMELRSVGDIEQELERCKASIRRLEQEVNQERFRMIYLQTLLAKEKKSYDRQRWGFRRAAQPPDGAAEPRASAPRPPPAPADGADPAPVEESEARPDGEGSPSKGRSASARRPAAAASADRDDRGPPTSVAALRSNFEKIRKGPAQPGSADAEKPFYVNVEFHHERGLVKVNDKEVSDRISSLGSQAMQMERKKSQQSAGQGLGEAPRPHYRGRSSESSCGLDGDYEDAELNPRFLKDNLINANGGNRPPWPPLEYQPYQSIYVGGMMVEGEGKSPLLRSQSTSEQEKRLTWPRRSYSPRSFEDSGGGYTPDCSSNENLTSSEEDFSSGQSSRVSPSPTTYRMFRDKSRSPSQNSQQSFDSSSPPTPQCQKRHRQCQVVVSEATIVGVRKTGQIWPSDGDSTFQGEADSSFGTPPGYGCAADQAEEQRRHQDGLPYIDDSPSSSPHLSSKGRGSLASGALDPTKVSELDLEKGLEMRKWVLSGILASEETYLSHLEALLLPMKPLKAAATTSQPVLTSQQIETIFFKVPELYEIHKEFYDGLFPRVQQWSHQQRVGDLFQKLASQLGVYRAFVDNYGVAMETAEKCCQANAQFAEISENLRARSNKDVKDSTTKNSLETLLYKPVDRVTRSTLVLHDLLKHTPSSHPDHSLLQDALRISQNFLSSINEEITPRRQSMTVKKGEHRQLLKDSFMVELVEGARKLRHIFLFTDLLLCTKLKKQSGGKTQQYDCKWYIPLTDLSFQMVDELEALPNIPLVPDEELDALKIKISQIKSDIQREKRANKGSKVMERLRKKLSEQESLLLLMSPSMAFRVHSRNGKSYTFLISSDYERAEWRESIREQQKKCFKSFSLTSVELQMLTNSCVKLQTVHHIPLTINKEDDESPGLYGFLHVIVHSATGFKQSSNLYCTLEVDSFGYFVNKAKTRVYRDTTEPNWNEEFEIELEGSQTLRILCYEKCYNKMKMTKEDGESADKLMGKGQVQLDPQTLQDRDWQRTVIDMNGIEVKLSVKFTSREFSLKRMPSRKQTGVFGVKIAVVTKRERSKVPYIVRQCVEEIERRGMEEVGIYRVSGVATDIQALKAAFDVNNKDVSVMMSEMDVNAIAGTLKLYFRELPEPLFTDEFYPNFAEGIALSDPVAKESCMLNLLLSLPEANLLTFLFLLDHLKRVAEKETVNKMSLHNLATVFGPTLLRPSEKESKLPANPSQPITMTDSWSLEVMSQVQVLLYFLQLEAIPAPDSKRQSILFSTEV

binding [4]: binds
B3: nuclear distribution protein nude-like 1 (mouse cortex) (protein, UniProt Q9ERR1 1-345)
chain: MDGEDIPDFSSLKEETAYWKELSLKYKQSFQEARDELVEFQEGSRELEAELEAQLVQAEQRNRDLQADNQRLKYEVEALKEKLEHQYAQSYKQVSVLEDDLSQTRAIKEQLHKYVRELEQANDDLERAKRATIVSLEDFEQRLNQAIERNAFLESELDEKESLLVSVQRLKDEARDLRQELAVRERQQEVTRKSAPSSPTLDCEKMDSAVQASLSLPATPVGKGTENSFPSPKAIPNGFGTSPLTPSARISALNIVGDLLRKVGALESKLAACRNFAKDQASRKSYVPGSVNCGVMNSNGPECPRSGRATFFHKGAVNGFDPAPPPPGLGSSRPSSAPGMLPLSV

binding [4]: binds
B4: huntingtin-associated protein 1 (mouse cortex) (protein, UniProt O35668 1-628)
chain: MRPKEQVQSGAGDGTGSGDPAAGTPTTQPAVGPAPEPSAEPKPAPAQGTGSGQKSGSRTKTGSFCRSMIIGDSDAPWTRYVFQGPYGPRATGLGTGKAEGIWKTPAAYIGRRPGVSGPERAAFIRELQEALCPNPPPTKKITEDDVKVMLYLLEEKERDLNTAARIGQSLVKQNSVLMEENNKLETMLGSAREEILHLRKQVNLRDDLLQLYSDSDDDDDEEDEEDEEEGEEEEREGQRDQDQQHDHPYGAPKPHPKAETAHRCPQLETLQQKLRLLEEENDHLREEASHLDNLEDEEQMLILECVEQFSEASQQMAELSEVLVLRLEGYERQQKEITQLQAEITKLQQRCQSYGAQTEKLQQMLASEKGIHSESLRAGSYMQDYGSRPRDRQEDGKSHRQRSSMPAGSVTHYGYSVPLDALPSFPETLAEELRTSLRKFITDPAYFMERRDTHCREGRKKEQRAMPPPPAQDLKPPEDFEAPEELVPEEELGAIEEVGTAEDGQAEENEQASEETEAWEEVEPEVDETTRMNVVVSALEASGLGPSHLDMKYVLQQLSNWQDAHSKRQQKQKVVPKDSPTPQQQTNMGGGILEQQPRVPTQDSQRLEEDRATHSPSAREEEGPSGAT

Where two headings read alike, the source gives them in different places. Results are given in words; binding and its absence hold for the method and conditions named. Binding seen in cells or lysates may run through a third protein. These calls come from enrichment with a bait or labelling near it, and not all partners need be listed. One block for each molecule: values may come before it.
